Source: patent US20260115161A1, “2-HYDROXY-OCTADECENE-9-CIS-OATE FOR USE IN THE TREATMENT OF ONCOLOGICAL PATHOLOGIES AND NEUROPATHIC PAIN” (Laminar Pharmaceuticals S.A., priority 2023, published 2026)

Tested on: U118 Glioblastoma
Experiment: Cell line assay, HOCOS combinations, U118
Format: cell-based
Settings: Homo sapiens; U118, compound alone
Experimental: To study the possible use of HOCOS in combinatorial therapies, human glioblastoma cells of lines U118, SNB19, SF268, human mesothelioma cells NCI-H2021 and pancreatic cancer cells BxPC-3 (pancreatic adenocarcinoma) and MIAPaCa-2 ([…]) were cultured in the absence or presence of different chemotherapeutic agents and combinations of HOCOS with said compounds.

IC50: 234 nM
SMILES: Cc1ccc(NC(=O)c2ccc(CN3CCN(C)CC3)cc2)cc1Nc1nccc(-c2cccnc2)n1 [Imatinib]
